Source: patent US7563758B2, “Enzymatic production of peracids using Lactobacilli having perhydrolysis activity” (E. I. du Pont de Nemours and Company, priority 2005, dated 2009)
For at least one compound, name, drawing or mass did not settle the structure.

System: Salmonella cholerasuis ATCC 10708
Test: Minimum biocidal concentration (MBC) of peracetic acid, XTT microtiter assay
Assay type: cell-based
Settings: 5-log kill; exposure at room temperature (e.g., 10 minutes)
Text: The method described by J. Gabrielson, et al. (J. Microbiol. Methods 50: 63-73 (2002)) can be employed for determination of the Minimum Biocidal Concentration (MBC) of peracids, or of hydrogen peroxide and enzyme substrates. The assay method is based on XTT reduction inhibition, where XTT ((2,3-bis[2-methoxy-4-nitro-5-sulfophenyl]-5-[(phenylamino)carbonyl]-2H-tetrazolium, inner salt, monosodium salt) is a redox dye that indicates microbial respiratory activity by a change in optical density (OD) measured at 490 nm or 450 nm. However, there are a variety of other methods available for testing the activity of disinfectants and antiseptics including, but not limited to viable plate counts, direct microscopic counts, dry weight, turbidity measurements, absorbance, and bioluminescence (see, for example Brock, Semour S., Disinfection, Sterilization, and Preservation, 5th edition, Lippincott Williams & Wilkins, Philadelphia, Pa., USA; 2001).
The minimum biocidal concentration (MBC) of peracid required to produce a 5-log kill of Staphylococcus aureus ATCC 6538, Salmonella cholerasuis ATCC 10708 and Pseudomonas aeruginosa ATCC 15442 was determined according to the following procedure. […] An OD450 reading was measured, and the plate incubated at 35° C.±2° C. for 24 hours. A second OD450 was measured, where orange color was indicative of cell growth. […]

CC(=O)OO [Sigma Lot # 07726EC, peracetic acid]
MBC in ppm PAA, Salmonella cholerasuis ATCC 10708: 1.2-<2.4
